Compound in the experiment: Nc1nc2c(ncn2[C@@H]2O[C@H](COP(=O)(O)OP(=O)(O)OP(=O)(O)O)[C@@H](O)[C@H]2O)c(=O)[nH]1 [guanosine triphosphate]
The experiment is described as follows: NP40-soluble protein abundance relative to vehicle (solubility fold change) (ratio); higher = more soluble protein in presence of GTP. The procedure:
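Solubility proteome profiling in Jurkat crude lysate. Lysate was treated with Mg-GTP (0.1-10 mM) for 10 min at room temperature and 3 min at 37 °C, then solubilised with 0.8% NP40 and benzonase, followed by ultracentrifugation. Proteins were quantified by TMT10 LC-MS/MS; the value is the NP40-soluble abundance relative to the NP40-processed vehicle, from 3 independent experiments.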

Sequences of proteins named here, by UniProt entry; tags and fusion partners are left off. A change or cut given only in a name is not applied to a line headed by its entry.
UniProt P42785: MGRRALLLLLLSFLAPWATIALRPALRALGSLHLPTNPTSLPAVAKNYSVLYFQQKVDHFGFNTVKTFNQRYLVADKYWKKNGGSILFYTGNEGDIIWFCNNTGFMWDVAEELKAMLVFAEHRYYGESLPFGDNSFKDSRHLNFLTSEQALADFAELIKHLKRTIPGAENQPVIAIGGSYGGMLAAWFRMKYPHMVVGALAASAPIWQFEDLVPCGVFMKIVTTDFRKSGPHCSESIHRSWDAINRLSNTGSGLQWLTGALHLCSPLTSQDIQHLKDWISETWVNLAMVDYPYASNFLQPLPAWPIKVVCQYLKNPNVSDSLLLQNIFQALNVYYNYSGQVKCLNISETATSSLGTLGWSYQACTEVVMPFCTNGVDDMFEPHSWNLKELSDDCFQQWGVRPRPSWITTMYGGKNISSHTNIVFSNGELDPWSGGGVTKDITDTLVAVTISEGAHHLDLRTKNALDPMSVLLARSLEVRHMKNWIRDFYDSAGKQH
UniProt P46100: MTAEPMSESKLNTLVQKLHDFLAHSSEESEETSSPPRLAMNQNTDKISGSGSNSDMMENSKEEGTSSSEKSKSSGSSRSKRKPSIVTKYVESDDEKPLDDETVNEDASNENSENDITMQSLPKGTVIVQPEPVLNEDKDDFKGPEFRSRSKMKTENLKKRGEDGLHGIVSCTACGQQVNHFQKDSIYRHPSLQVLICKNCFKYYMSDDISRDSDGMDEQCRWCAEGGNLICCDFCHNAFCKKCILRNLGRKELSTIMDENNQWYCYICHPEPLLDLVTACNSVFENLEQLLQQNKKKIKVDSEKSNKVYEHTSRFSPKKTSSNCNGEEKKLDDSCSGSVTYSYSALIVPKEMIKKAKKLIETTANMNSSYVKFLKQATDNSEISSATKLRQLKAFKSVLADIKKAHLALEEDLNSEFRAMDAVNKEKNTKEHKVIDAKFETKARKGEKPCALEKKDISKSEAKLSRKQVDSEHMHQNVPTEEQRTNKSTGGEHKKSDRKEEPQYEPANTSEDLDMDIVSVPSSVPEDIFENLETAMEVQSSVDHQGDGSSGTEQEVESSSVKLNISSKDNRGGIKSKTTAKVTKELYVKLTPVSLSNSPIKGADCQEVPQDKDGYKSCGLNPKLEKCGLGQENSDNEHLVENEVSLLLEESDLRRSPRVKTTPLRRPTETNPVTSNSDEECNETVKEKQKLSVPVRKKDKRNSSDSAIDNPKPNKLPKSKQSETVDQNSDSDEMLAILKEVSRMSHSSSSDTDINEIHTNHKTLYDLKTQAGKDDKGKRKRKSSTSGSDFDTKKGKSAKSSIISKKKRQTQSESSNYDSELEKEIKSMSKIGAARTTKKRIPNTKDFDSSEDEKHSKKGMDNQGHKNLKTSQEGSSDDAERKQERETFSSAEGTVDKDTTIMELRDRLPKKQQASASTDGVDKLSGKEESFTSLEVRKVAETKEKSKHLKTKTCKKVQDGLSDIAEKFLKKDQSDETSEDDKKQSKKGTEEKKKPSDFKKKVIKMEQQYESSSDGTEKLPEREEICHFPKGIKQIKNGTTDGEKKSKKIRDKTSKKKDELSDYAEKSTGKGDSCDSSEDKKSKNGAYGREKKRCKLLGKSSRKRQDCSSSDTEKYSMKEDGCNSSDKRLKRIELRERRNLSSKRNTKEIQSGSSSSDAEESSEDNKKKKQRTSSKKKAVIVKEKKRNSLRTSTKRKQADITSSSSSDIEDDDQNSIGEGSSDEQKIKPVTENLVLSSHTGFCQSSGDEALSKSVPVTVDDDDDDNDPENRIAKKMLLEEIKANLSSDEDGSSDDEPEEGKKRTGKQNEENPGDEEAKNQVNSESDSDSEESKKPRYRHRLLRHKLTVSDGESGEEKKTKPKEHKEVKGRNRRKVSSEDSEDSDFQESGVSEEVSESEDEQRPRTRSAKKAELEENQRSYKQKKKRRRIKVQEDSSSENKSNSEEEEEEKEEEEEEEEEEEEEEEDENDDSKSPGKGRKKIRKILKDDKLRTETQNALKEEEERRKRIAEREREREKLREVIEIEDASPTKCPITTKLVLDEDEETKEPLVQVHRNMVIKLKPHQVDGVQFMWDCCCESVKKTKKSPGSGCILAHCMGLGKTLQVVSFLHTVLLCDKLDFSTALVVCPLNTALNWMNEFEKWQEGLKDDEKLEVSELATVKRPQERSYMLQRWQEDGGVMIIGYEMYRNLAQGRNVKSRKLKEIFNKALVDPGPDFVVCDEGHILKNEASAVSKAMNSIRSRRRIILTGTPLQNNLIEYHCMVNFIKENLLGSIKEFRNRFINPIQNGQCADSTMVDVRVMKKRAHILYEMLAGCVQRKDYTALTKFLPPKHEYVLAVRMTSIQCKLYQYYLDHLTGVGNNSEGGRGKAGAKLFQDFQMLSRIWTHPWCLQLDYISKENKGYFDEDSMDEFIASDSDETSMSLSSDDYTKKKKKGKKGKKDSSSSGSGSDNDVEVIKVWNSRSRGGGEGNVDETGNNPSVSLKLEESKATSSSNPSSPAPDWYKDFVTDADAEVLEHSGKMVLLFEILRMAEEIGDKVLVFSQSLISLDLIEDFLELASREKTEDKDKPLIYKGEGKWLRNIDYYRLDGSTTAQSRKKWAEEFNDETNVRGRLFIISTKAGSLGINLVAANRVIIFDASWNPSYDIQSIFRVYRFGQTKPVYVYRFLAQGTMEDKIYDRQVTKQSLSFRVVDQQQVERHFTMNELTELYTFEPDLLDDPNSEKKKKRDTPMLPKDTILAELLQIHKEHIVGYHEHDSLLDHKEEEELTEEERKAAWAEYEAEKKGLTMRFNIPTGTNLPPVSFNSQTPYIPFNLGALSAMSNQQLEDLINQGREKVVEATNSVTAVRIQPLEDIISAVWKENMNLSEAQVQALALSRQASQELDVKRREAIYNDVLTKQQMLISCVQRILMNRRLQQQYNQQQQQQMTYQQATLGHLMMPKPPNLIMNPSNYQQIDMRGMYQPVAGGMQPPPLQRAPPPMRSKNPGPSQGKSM
UniProt P35580, whole entry: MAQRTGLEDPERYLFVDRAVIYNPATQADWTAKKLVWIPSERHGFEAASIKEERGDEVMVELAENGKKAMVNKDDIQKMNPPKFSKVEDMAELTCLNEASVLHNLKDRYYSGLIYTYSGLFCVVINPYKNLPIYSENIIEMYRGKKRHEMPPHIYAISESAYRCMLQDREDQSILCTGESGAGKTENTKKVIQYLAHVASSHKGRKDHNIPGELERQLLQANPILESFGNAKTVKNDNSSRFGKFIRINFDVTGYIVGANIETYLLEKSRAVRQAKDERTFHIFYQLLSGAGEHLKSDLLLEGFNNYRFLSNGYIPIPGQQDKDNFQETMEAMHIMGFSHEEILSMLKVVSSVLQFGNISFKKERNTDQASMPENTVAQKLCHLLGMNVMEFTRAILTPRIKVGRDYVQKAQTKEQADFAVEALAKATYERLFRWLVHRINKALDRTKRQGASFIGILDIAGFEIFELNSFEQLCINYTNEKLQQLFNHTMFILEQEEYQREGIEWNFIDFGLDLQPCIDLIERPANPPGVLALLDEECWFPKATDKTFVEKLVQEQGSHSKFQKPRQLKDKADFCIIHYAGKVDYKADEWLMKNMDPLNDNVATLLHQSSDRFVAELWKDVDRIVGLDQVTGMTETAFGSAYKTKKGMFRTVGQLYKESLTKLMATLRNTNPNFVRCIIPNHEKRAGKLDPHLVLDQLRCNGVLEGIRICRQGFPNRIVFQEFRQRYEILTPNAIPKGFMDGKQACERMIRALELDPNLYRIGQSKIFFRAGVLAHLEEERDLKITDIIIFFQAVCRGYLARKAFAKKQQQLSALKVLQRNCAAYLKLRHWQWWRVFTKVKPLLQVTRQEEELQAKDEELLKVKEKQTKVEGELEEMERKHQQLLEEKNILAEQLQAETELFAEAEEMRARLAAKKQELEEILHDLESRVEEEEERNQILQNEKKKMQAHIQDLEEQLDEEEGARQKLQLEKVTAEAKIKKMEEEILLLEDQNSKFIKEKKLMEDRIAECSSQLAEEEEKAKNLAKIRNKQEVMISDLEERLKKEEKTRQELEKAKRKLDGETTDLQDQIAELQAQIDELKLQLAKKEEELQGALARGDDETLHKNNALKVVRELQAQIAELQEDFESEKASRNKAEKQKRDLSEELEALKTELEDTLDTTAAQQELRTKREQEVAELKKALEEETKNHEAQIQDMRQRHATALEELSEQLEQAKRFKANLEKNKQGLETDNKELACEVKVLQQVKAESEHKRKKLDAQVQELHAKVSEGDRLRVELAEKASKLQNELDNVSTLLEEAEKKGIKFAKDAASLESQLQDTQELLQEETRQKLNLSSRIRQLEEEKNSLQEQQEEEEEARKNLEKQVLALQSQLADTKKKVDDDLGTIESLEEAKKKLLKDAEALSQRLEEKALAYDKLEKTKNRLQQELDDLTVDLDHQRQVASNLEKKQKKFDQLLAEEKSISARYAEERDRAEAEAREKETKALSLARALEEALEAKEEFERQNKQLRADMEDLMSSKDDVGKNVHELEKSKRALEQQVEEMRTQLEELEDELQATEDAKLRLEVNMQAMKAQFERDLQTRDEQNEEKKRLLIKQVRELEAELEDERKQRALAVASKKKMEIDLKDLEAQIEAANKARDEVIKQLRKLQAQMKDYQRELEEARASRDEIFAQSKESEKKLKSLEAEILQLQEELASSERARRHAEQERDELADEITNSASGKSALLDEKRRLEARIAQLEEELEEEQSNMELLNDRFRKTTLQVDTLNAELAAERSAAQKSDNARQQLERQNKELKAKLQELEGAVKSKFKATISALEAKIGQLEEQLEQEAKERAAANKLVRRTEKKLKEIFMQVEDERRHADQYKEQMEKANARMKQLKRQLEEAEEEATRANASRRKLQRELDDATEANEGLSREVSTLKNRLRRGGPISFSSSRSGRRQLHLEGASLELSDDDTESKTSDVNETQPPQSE
UniProt P49915: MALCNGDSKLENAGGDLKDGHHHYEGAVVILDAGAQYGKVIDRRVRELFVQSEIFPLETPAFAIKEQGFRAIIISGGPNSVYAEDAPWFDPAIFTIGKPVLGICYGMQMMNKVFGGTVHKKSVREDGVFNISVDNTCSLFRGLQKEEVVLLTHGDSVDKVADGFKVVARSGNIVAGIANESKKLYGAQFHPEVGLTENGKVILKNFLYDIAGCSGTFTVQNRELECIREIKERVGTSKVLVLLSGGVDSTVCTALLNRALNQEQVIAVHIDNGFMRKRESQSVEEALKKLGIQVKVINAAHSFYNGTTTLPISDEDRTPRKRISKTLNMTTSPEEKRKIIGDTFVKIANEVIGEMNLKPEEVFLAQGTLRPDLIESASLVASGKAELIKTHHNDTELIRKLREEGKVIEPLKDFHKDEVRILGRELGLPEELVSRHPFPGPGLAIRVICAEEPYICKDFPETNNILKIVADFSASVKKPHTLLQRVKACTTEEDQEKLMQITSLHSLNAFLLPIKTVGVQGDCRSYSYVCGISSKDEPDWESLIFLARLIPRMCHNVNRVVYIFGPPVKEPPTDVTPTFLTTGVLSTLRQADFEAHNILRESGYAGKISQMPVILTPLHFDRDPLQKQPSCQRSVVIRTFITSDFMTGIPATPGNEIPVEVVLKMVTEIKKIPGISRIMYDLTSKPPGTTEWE
UniProt P35221: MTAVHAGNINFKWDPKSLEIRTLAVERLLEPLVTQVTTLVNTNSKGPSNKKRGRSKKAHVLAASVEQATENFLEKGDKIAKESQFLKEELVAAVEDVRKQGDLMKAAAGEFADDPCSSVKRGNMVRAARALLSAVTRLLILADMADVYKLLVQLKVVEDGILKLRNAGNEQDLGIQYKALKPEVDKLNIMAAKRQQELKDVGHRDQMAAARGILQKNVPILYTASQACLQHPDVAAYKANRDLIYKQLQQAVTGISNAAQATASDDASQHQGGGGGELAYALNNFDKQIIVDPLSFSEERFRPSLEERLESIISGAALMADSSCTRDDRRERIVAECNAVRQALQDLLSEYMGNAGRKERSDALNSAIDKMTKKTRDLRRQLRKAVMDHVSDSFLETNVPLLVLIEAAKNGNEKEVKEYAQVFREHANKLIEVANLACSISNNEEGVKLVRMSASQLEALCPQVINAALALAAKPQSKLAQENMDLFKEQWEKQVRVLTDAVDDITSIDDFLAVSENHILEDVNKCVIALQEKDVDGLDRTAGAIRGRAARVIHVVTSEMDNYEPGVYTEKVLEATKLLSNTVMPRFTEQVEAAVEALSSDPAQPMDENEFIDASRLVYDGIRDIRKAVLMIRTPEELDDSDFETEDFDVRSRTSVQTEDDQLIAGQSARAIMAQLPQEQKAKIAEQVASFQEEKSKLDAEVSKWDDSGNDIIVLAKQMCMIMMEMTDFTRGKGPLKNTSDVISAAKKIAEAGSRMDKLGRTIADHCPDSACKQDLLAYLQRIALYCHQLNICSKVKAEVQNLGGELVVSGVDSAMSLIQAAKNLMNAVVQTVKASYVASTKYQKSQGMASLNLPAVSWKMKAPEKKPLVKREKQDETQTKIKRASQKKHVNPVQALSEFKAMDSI

± gives the standard deviation of the averaged measurements. The list shows a part of the results.

Take PRCP (UniProt P42785): the NP40-soluble protein abundance is, setting by setting: (concentration: 0.1mM) 0.972 ± 0.02; (concentration: 0.5mM) 1.01 ± 0.05; (concentration: 1mM) 0.95 ± 0.041; (concentration: 2mM) 0.971 ± 0.047; (concentration: 4mM) 0.925 ± 0.034; (concentration: 6mM) 0.953 ± 0.04. The NP40-soluble protein abundance is 0.938 ± 0.083 (concentration: 8mM) and 0.977 ± 0.11 (concentration: 10mM).
Take ATRX (UniProt P46100): the NP40-soluble protein abundance stood at 0.951 ± 0.068 (concentration: 0.1mM); 0.944 ± 0.065 (concentration: 0.5mM); 1.01 ± 0.051 (concentration: 1mM); 0.995 ± 0.066 (concentration: 2mM); 1.04 ± 0.036 (concentration: 4mM); 1.05 ± 0.031 (concentration: 6mM). Further, the NP40-soluble protein abundance came to 1.12 ± 0.063 (concentration: 8mM) and 1.14 ± 0.099 (concentration: 10mM).
As to MYH10 (UniProt P35580), the NP40-soluble protein abundance turned out to be 0.971 ± 0.046 (concentration: 0.1mM); 1.05 ± 0.072 (concentration: 0.5mM); 1.05 ± 0.075 (concentration: 1mM); 1.04 ± 0.084 (concentration: 2mM); 1.04 ± 0.086 (concentration: 4mM); 1.05 ± 0.072 (concentration: 6mM). Further, the NP40-soluble protein abundance is 1.08 ± 0.12 (concentration: 8mM) and 1.05 ± 0.1 (concentration: 10mM).
For GMPS (UniProt P49915), the NP40-soluble protein abundance runs as follows: (concentration: 0.1mM) 0.9722 ± 0.0091; (concentration: 0.5mM) 0.9922 ± 0.0088; (concentration: 1mM) 0.9203 ± 0.0078; (concentration: 2mM) 0.91 ± 0.038; (concentration: 4mM) 0.882 ± 0.026; (concentration: 6mM) 0.899 ± 0.028. For the same target, the NP40-soluble protein abundance is 0.869 ± 0.036 (concentration: 8mM) and 0.867 ± 0.067 (concentration: 10mM).
Consider UniProt P35221 and related entries, for which the NP40-soluble protein abundance by setting is: (concentration: 0.1mM) 1.02 ± 0.039; (concentration: 0.5mM) 0.973 ± 0.089; (concentration: 1mM) 1.01 ± 0.077; (concentration: 2mM) 0.961 ± 0.036; (concentration: 4mM) 0.985 ± 0.072; (concentration: 6mM) 0.944 ± 0.071. Moreover, the NP40-soluble protein abundance runs as follows: (concentration: 8mM) 0.995 ± 0.012; (concentration: 10mM) 0.969 ± 0.061.

The record behind these values is the supplement of paper PMC6411743.
